Test results reported in patent US7776845B2, “Pharmaceutical compositions” (Harbor Biosciences, Inc., priority 1999, dated 2010).
Some of these results come from one statement about several compounds together.

Molecular target: T1, androgen receptor (AR) (Homo sapiens, UniProt P10275)
T1 construct: expressed in transfected cells; host or cells: PC-3 (AR-negative human prostate cancer cell line)
T1 sequence (P10275 1-920): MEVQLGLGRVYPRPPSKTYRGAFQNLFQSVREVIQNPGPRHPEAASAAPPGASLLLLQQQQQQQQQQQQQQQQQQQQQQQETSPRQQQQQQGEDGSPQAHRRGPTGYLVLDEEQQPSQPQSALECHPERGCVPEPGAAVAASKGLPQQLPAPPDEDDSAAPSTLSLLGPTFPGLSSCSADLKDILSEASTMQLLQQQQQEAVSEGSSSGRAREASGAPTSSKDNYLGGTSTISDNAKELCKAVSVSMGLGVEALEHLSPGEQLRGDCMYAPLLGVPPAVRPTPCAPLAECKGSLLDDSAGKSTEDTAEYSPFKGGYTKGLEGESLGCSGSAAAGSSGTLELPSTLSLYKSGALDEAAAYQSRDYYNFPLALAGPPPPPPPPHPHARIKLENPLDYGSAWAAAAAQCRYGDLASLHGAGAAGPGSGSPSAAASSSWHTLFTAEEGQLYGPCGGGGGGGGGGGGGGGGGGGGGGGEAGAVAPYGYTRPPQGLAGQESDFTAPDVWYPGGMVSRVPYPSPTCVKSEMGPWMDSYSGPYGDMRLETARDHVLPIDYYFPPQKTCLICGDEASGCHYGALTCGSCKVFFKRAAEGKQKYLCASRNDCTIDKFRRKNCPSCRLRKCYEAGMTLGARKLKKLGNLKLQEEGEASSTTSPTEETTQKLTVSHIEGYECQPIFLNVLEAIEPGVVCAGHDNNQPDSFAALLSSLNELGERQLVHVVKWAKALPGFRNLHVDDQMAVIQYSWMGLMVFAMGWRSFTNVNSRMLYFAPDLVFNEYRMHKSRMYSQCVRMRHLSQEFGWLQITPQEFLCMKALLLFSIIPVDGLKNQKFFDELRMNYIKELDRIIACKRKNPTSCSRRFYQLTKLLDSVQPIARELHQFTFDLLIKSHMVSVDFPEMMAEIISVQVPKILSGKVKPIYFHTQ
Assay: Anti-adiol activity: modulation of AED-induced AR transactivation (MMTV-CAT assay)
Type: cell-based
Conditions: PC-3 cells, 50 nM AED, compound at 0.1 μM and 1 μM
Excerpt: AR activity assay. […] Ethynyl derivatized steroids were purchased from Steraloids.

C#C[C@]1(O)CCC2C3CC=C4C[C@@H](O)CC[C@]4(C)C3CC[C@@]21C (stereo partly drawn) [Compound 6, 17α-ethynyl-androst-5-ene-3β,17β-diol]
AED-induced AR transactivation suppressed to: less than 30%
